Test results reported in PubChem BioAssay AID2685 (National Center for Advancing Translational Sciences (NCATS), 2010).
Some of the results follow. Shown are side measurements of this screen, not its main read-out; they come without a call. The list favours compounds with an active or inconclusive main result. Potencies come from curve fits of mixed quality, noted in brackets.

Experiment: qHTS Assay for Lipid Storage Modulators in Drosophila S3 Cells;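 for cell number change: cells counted by Cell Tracker Red CMTPX staining in the red channel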
Conditions: BODIPY lipid droplet fluorescence, 18-24 h; for cell number change: measured here: cell count max response, cells fed with added oleic acid
Outline: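 Laser-scanning cytometry quantifies lipid droplet accumulation (500–530 nm total intensity; droplet/cell object ratio) in oleic acid-fed (400 uM added) Drosophila S3 cells treated with a concentration series. 20 uM Triacsin C defined 100% inhibition.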

[1] = measured here: lipid fluorescence (Fed channel) AC50, cells fed with added oleic acid
[2] = measured here: cell number channel AC50, cells fed with added oleic acid

| Structure (SMILES) | cell number change [%] | AC50 [1] | AC50 [2] |
| --- | --- | --- | --- |
| O=C(NCc1ccc2c(c1)OCO2)c1cccc(F)c1 | -20.9 | – | – |
| COc1ccc(CC(=O)N(C)CC(=O)Nc2ccccc2Cl)cc1S(=O)(=O)N1CCOCC1 | 21.2 | 2.06 µM [rising, single point] | – |
| CC(=O)c1ccc(S(=O)(=O)N2CCN(C(=O)c3ccc(COc4ccccc4)o3)CC2)cc1 | -24.3 | – | – |
| CCOc1cnc(-c2c(-c3ccccc3Cl)noc2C)o1 | -64.7 | – | 20.6 µM [falling, single point] |
| COc1ccc(OC)c(NC(=O)CSc2ccccc2)c1 | 6.02 | 3.66 µM [rising, full curve] | – |
| CCC(=O)c1ccc2c(c1)OCCO2 | 26.2 | 6.51 µM [rising, partial curve, poor fit] | 0.517 µM [rising, partial curve, poor fit] |
| CCCn1c(N)c(C(=O)CSc2n[nH]c(-c3ccccc3F)n2)c(=O)n(C)c1=O | -42.6 | 29.1 µM [falling, single point] | 6.51 µM [falling, full curve] |
| O=C(NC1CCc2ccccc21)c1cc(COc2c(F)cccc2F)on1 (configuration not stated) | 29.7 | 2.59 µM [rising, full curve] | 1.84 µM [rising, full curve, poor fit] |
| CC(=O)Nc1ccc(NC(=O)CN(c2cccc(C)c2)S(C)(=O)=O)cc1 | -60.8 | 32.6 µM [rising, single point] | 20.6 µM [falling, single point] |
| Cc1ccc(C)c2[nH]c(=O)c(CN(Cc3ccco3)C(=O)Nc3ccccc3)cc12 | 46.7 | 0.116 µM [rising, single point] | 0.58 µM [rising, full curve] |
| CCOc1ccc(C(=O)C(C)OC(=O)Cn2[nH]c(=O)c3ccccc3c2=O)cc1 (configuration not stated) | -0.578 | 29.1 µM [rising, single point] | – |
| COc1ccc(NC(=O)C2CCCCN2S(=O)(=O)c2ccc(F)cc2)c(OC)c1 (configuration not stated) | – | 13 µM [falling, partial curve] | 0.58 µM [rising, single point] |
| Cc1ccc(S(=O)(=O)N2CCOC23CCN(C(=O)c2ccc(Cl)cc2Cl)CC3)cc1 | -0.763 | – | – |
| COc1ccc(NS(=O)(=O)c2cc(NC(=O)c3nn(C)c(=O)c4ccccc34)ccc2OC)cc1 | -26.1 | 5.8 µM [rising, single point] | 0.651 µM [rising, full curve] |
| COc1ccccc1/C=C\C=N\NC(=O)c1ccco1 | – | – | 5.17 µM [rising, single point] |

Reprinted at random: 2 compounds from above

| Structure (SMILES) | cell number change [%] | AC50 [1] | AC50 [2] |
| --- | --- | --- | --- |
| Cc1ccc(C)c2[nH]c(=O)c(CN(Cc3ccco3)C(=O)Nc3ccccc3)cc12 | 46.7 | 0.116 µM [rising, single point] | 0.58 µM [rising, full curve] |
| CC(=O)Nc1ccc(NC(=O)CN(c2cccc(C)c2)S(C)(=O)=O)cc1 | -60.8 | 32.6 µM [rising, single point] | 20.6 µM [falling, single point] |
